{"source": "the supplement of paper PMC10338343", "note": "± gives the standard deviation. Only a part is listed here, and it is no random draw. The uncertainty is large for many entries."}
{"system": "MIWI (PIWIL1) piRISC loaded with piRNA #1 (30 nt)", "experiment": "pre-steady-state target cleavage rate (min^-1); MIWI and MILI are mouse PIWI proteins and EfPiwi is from a freshwater sponge; tags in brackets are library labels; higher = faster piRNA-guided slicing of the target", "details": "guide: piRNA #1 5'p-UGAGGUAGUAGGUUGUAUAGUAUCCAGAGG; auxiliary factor: 500 nM mouse GTSF1", "method_in_brief": "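Using HEPES–potassium acetate buffer at 33 °C, 1 nM active affinity-purified piRISC with a single synthetic guide was mixed with 0.1 nM transcribed, DNA-blocked target RNA library for 0–8 or 0–960 min, with or without 500 nM GTSF1 partner protein. Uncleaved targets were sequenced and normalised to depth and to weakly complementary targets, and three trials were pooled with k3 capped at 0.0001 min^-1. A burst-and-steady-state fit gave the pre-steady-state cleavage rate.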"}
{"sequence": "GGUCUGGAUACUAUACAACCAUACUACCUCA", "pre-steady-state target cleavage rate": "0.00223 ± 0.0038"}
{"sequence": "GGACUGGAUACUAUACAACCUAUUACCUCA", "pre-steady-state target cleavage rate": "0.86 ± 0.075"}
{"sequence": "GGAGUGGAUACUAUAGAACCUACUACCUCA", "pre-steady-state target cleavage rate": "1.34 ± 0.076"}
{"sequence": "GGAGACCUAUCUAUACAACCAUCUACCUCA", "pre-steady-state target cleavage rate": "0.00254 ± 0.0044"}
{"sequence": "GGAGACCUAUGAAAACAACCUACUAGCUCA", "pre-steady-state target cleavage rate": "0.00027 ± 0.0087"}
{"sequence": "GGAGACGAUACUAUACAACAUACUACCUCA", "pre-steady-state target cleavage rate": "1.16 ± 0.077"}
{"sequence": "GCUCUGGAUACUAUACCAACCUACUACCUCA", "pre-steady-state target cleavage rate": "0.392 ± 0.075"}
{"sequence": "GGAGACCUAUGAUAUGUUCCUACACCUCA", "pre-steady-state target cleavage rate": "0.000405 ± 0.011"}
{"sequence": "GCUCUGAUACUAUACAACCUACUACCUCA", "pre-steady-state target cleavage rate": "1.9 ± 0.12"}
{"sequence": "GGUCUGGAUACUAUCCAACCUACUACCUCA", "pre-steady-state target cleavage rate": "1.96 ± 0.14"}
{"sequence": "GCUCUGAAUACUAUACAACCUACUACCUCA", "pre-steady-state target cleavage rate": "1.89 ± 0.12"}
{"sequence": "GGAGACCUAUGUAUACAAUCUACUACCUCA", "pre-steady-state target cleavage rate": "0.0144 ± 0.0036"}
{"sequence": "GGUCAUGGAUACUAUACAACCUACUACCUCA", "pre-steady-state target cleavage rate": "1.85 ± 0.11"}
{"sequence": "GGAGACCUAUGAUAACAACCUACUACCUACA", "pre-steady-state target cleavage rate": "0.000617 ± 0.0053"}
{"sequence": "GCUCUGGAUACUAUACUAACCUACUACCUCA", "pre-steady-state target cleavage rate": "0.00667 ± 0.0041"}
{"sequence": "GGACUUGAUACUAUACAACCUACUACCUCA", "pre-steady-state target cleavage rate": "1.73 ± 0.12"}
{"sequence": "CCUCUGGAUACUAUACAACCUACUACCUCU [g2:g30:cont:t1U]", "pre-steady-state target cleavage rate": "2.36 ± 0.14"}
{"sequence": "GGACUGGAUACUAUACAUACCUACUACCUCA", "pre-steady-state target cleavage rate": "0.000115 ± 0.049"}
{"sequence": "GGAGACCUAUGUAUUCAACCUUCUACCUCA", "pre-steady-state target cleavage rate": "0.000514 ± 0.0043"}
{"sequence": "CCUCUGGAUACUUUACAACCUACUACCUGA", "pre-steady-state target cleavage rate": "0.715 ± 0.1"}
{"sequence": "GGAGACCUAUGAUUACAACCGUACUACCUCA", "pre-steady-state target cleavage rate": "0.000282 ± 0.0099"}
{"sequence": "GGAGACCUAUGAUUGCAACCUACUACCUCA", "pre-steady-state target cleavage rate": "0.00106 ± 0.0036"}
{"sequence": "GGAGACCUAUGAUUACUACCUACUUCCUCA", "pre-steady-state target cleavage rate": "0.000205 ± 0.012"}
{"sequence": "GGAGACCUAUGAUAUGUUCCUACUACCUGCA", "pre-steady-state target cleavage rate": "0.000103 ± 0.032"}
{"sequence": "GGAGACCUAUGAACUACAACCUACUACCUCA", "pre-steady-state target cleavage rate": "0.000233 ± 0.016"}
{"sequence": "GGAGACGAUACUAUACAACCUCUACCUCA", "pre-steady-state target cleavage rate": "0.00199 ± 0.0041"}
{"sequence": "GCUCAGGAUACUAUACAACCUACUACCUCA", "pre-steady-state target cleavage rate": "1.85 ± 0.11"}
{"sequence": "GGUCUGGUACUAUACAACCUACUACCUCA", "pre-steady-state target cleavage rate": "1.73 ± 0.11"}
{"sequence": "GGAGACCUAUGAAUACAACCUACUACUUCA", "pre-steady-state target cleavage rate": "0.00295 ± 0.003"}
{"sequence": "GGAGACCUAUGUAAACAACCUACUACCACA", "pre-steady-state target cleavage rate": "0.00107 ± 0.0074"}
{"sequence": "GGUGCUGGAUACUAUACAACCUACUACCUCA", "pre-steady-state target cleavage rate": "1.85 ± 0.11"}
{"sequence": "GGACUGGAUACUAUACAACCUACACCUCA", "pre-steady-state target cleavage rate": "0.000286 ± 0.013"}
{"sequence": "GGAGACCUAUGAUAUGUUGCUACUCCCUCA", "pre-steady-state target cleavage rate": "0.00033 ± 0.01"}
{"sequence": "GGAGACCUAUGUAUUCAACCUACUACCUGA", "pre-steady-state target cleavage rate": "0.000294 ± 0.0061"}
{"sequence": "GGUCUGCGAUACUAUACAACCUACUACCUCA", "pre-steady-state target cleavage rate": "1.79 ± 0.071"}
{"sequence": "GGUCUGGAUACUAUAGAACCUACAACCUCA", "pre-steady-state target cleavage rate": "0.000599 ± 0.0073"}
{"sequence": "GGAGACCUAUCUAAACAACGUACUACCUCA", "pre-steady-state target cleavage rate": "0.0018 ± 0.0046"}
{"sequence": "CCUCUGGAUACUAAACUACCUACUACCUCA", "pre-steady-state target cleavage rate": "1.24 ± 0.098"}
{"sequence": "GGAGACCUAUGAAUACAACCUACUCACCUCA", "pre-steady-state target cleavage rate": "0.00166 ± 0.0031"}
